Reference: the supplement of paper PMC10849652
This is one part of the list.

Amino acid sequences for entries named in this document (tags omitted). A change or cut given only in a name is not applied to a line headed by its entry.
UniProt Q147X3: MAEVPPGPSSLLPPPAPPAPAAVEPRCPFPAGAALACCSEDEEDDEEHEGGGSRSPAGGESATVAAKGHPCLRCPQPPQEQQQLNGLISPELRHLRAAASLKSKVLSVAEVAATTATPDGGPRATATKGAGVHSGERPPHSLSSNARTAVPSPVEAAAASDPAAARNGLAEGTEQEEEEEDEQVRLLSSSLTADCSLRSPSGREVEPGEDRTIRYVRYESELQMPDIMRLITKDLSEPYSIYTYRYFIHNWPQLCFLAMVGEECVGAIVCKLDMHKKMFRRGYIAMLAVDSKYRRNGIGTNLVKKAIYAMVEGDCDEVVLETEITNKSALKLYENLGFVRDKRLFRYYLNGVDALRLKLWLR
UniProt Q9NXR1: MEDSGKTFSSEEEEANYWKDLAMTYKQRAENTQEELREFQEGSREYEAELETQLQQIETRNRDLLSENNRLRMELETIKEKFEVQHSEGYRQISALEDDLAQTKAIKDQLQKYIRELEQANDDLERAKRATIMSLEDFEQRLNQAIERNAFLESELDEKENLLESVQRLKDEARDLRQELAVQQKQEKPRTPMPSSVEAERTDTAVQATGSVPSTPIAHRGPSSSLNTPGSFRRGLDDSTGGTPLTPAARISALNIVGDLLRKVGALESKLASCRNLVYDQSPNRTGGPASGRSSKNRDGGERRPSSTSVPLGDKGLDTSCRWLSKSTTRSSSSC
UniProt Q92692, whole entry, looked up: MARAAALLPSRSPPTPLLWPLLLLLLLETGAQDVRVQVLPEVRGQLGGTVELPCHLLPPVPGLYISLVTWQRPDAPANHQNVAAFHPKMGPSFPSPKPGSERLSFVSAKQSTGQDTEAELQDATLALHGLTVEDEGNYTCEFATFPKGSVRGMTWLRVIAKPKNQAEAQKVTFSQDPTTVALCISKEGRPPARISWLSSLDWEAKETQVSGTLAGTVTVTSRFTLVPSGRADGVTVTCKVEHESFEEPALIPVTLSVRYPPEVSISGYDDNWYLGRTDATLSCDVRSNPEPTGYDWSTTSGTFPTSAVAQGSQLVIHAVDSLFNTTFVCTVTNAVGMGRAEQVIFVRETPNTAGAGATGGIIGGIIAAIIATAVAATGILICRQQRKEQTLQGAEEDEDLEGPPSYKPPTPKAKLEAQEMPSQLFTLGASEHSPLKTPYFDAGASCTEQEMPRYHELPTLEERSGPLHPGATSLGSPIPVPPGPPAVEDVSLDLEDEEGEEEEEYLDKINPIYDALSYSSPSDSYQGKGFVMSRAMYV
UniProt O43776: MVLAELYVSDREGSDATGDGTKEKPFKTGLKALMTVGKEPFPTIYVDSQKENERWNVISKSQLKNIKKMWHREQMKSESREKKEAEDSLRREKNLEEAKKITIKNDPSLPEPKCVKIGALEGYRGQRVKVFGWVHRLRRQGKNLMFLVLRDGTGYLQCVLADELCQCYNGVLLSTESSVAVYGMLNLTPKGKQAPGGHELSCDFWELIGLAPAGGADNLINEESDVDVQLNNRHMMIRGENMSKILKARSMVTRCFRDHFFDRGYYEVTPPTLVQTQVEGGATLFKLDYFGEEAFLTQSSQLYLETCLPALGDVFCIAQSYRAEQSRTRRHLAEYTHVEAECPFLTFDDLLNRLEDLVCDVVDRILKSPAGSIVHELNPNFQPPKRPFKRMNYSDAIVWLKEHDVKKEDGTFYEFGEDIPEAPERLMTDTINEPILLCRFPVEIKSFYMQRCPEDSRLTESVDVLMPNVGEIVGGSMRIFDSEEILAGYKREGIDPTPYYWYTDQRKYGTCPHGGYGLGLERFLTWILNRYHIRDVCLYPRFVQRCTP
UniProt P55209: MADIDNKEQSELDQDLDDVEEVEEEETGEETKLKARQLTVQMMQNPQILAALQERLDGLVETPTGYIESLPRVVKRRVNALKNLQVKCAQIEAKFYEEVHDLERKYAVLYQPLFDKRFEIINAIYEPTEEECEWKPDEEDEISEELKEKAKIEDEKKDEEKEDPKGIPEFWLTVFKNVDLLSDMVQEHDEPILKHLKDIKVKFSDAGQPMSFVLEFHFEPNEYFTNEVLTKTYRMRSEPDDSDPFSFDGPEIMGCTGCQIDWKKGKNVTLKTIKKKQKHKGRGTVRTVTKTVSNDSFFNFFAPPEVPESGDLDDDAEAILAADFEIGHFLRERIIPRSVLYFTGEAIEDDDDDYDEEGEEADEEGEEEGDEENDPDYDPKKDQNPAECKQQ
UniProt Q8TBE9: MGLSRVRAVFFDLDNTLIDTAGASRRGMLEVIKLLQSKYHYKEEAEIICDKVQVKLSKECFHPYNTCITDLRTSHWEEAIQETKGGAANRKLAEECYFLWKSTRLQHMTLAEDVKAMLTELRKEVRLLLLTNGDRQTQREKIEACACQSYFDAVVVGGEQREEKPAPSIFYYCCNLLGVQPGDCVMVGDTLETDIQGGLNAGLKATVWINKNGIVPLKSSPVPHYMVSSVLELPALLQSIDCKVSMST
UniProt Q9BT67: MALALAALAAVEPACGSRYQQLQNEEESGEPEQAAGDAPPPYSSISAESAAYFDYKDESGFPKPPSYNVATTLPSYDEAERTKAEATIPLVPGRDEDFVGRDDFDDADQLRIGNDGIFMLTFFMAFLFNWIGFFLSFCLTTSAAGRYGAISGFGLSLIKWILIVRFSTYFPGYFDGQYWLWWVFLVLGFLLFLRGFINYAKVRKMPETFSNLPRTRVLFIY
UniProt O75113: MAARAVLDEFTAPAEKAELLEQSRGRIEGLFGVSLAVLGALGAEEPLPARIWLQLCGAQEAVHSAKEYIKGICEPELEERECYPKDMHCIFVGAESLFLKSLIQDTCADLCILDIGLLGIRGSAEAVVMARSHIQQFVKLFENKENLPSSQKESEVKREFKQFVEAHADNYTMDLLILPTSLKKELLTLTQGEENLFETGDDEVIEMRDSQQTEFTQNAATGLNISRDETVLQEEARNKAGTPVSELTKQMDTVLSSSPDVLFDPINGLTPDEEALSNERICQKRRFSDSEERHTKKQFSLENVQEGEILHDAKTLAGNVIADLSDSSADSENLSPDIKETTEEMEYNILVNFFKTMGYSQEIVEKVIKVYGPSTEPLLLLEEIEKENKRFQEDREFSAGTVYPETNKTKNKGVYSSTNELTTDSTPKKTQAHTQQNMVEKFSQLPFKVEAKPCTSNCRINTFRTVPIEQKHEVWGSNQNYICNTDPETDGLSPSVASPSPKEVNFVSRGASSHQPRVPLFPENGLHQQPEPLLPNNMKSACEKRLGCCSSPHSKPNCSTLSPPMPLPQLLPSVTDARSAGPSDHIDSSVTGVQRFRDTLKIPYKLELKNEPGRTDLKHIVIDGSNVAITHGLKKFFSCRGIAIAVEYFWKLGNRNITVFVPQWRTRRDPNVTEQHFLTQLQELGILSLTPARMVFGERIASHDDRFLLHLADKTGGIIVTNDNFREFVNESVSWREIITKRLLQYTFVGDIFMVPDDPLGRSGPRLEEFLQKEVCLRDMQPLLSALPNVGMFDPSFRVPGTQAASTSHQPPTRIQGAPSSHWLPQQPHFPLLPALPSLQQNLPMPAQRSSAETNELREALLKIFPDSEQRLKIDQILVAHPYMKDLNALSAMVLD
UniProt Q6NZ67, whole entry, looked up: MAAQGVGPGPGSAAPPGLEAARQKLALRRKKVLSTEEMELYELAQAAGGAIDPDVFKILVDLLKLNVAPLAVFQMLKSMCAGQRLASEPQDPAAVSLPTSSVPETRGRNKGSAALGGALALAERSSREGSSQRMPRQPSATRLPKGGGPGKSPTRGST
NA, A0A494C071, UniProt A0A494C071, whole entry, looked up: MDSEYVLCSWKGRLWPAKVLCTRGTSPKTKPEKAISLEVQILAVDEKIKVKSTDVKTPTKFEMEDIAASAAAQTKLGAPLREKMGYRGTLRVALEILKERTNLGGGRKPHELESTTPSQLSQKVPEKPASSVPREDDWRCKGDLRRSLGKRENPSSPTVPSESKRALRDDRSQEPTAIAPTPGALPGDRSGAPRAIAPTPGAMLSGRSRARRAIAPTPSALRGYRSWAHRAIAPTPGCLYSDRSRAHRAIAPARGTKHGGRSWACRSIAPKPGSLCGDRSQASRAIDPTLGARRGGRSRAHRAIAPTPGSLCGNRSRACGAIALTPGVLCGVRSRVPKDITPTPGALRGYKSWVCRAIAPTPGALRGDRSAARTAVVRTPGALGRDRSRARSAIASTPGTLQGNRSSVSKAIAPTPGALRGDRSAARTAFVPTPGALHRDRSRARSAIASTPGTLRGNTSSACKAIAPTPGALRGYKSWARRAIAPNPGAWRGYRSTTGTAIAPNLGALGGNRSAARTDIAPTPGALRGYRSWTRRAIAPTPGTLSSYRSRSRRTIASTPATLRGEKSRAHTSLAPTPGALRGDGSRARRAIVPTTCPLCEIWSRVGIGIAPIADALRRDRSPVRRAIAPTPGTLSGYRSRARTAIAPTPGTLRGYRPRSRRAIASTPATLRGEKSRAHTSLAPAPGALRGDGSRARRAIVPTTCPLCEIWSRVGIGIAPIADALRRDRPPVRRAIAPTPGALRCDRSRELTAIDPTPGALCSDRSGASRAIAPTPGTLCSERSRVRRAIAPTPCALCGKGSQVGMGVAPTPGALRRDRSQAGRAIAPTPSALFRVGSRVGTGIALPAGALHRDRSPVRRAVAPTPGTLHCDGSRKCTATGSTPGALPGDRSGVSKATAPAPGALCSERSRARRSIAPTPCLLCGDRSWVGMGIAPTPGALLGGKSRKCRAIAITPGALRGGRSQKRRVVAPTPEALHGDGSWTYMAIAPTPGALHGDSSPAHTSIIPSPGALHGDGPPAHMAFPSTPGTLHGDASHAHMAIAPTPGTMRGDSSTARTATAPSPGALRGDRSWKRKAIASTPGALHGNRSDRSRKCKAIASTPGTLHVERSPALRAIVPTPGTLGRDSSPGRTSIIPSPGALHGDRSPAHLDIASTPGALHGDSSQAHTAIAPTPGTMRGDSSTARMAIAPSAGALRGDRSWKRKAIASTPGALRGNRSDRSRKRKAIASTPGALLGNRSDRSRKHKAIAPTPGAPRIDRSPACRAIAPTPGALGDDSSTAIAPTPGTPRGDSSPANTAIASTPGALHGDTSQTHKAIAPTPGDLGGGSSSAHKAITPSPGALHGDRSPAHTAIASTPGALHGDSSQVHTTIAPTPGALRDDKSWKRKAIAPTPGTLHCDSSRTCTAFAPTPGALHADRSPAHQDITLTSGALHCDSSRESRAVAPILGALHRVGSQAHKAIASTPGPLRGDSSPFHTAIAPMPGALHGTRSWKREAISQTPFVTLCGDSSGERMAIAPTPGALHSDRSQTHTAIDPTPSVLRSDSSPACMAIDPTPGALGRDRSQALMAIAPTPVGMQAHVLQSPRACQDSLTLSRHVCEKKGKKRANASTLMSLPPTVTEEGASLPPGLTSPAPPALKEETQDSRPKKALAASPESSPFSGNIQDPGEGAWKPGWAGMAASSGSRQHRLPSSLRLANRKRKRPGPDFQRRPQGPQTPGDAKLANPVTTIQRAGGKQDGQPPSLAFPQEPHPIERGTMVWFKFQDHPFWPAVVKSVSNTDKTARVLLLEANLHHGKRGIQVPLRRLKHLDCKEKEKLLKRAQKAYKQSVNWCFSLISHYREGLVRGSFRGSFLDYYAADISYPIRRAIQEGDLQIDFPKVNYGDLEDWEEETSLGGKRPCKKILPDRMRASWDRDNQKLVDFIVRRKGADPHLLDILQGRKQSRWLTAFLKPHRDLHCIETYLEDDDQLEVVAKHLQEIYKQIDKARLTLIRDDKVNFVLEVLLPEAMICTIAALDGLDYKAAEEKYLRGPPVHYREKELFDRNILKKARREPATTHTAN
UniProt O43639, whole entry, looked up: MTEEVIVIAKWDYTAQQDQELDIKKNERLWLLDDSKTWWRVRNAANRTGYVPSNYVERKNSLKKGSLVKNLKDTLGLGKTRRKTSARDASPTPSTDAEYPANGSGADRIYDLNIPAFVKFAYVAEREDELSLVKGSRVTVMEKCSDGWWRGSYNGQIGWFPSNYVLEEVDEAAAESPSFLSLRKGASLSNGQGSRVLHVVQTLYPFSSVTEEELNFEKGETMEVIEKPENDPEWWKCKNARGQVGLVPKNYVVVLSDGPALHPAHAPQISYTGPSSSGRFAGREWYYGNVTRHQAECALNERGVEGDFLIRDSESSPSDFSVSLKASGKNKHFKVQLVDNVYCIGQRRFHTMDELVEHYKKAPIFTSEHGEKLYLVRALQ
UniProt Q7L592: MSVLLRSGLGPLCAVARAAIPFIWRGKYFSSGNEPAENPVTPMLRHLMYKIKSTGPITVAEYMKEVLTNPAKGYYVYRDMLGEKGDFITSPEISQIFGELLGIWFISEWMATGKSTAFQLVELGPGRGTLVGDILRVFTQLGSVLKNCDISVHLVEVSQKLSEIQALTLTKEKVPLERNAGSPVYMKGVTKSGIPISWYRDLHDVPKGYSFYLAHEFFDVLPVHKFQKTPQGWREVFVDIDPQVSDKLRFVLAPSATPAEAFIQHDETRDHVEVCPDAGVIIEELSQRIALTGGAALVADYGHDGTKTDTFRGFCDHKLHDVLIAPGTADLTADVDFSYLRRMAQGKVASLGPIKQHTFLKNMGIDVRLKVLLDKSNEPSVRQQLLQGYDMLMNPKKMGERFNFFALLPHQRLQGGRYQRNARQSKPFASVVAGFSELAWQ

Legend:
Assay in all cases: log2 fold change, soluble protein after heating vs DMSO (PISA); higher = thermal stabilisation; K562 cells, 10 uM, 30 min; active = over 0.2 and 3.5 SD of the protein, either way, in both replicates (recomputed)
[1] = compound: Cc1ccc(NC(=O)c2ccc(CN3CC[C@H](N(C)C)C3)c(C(F)(F)F)c2)cc1Nc1nccc(-c2cncnc2)n1 [bafetinib]
How it was run: (§1)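 K562 cells at 2×10^6 cells/mL were treated for 30 min with 10 μM compound, and aliquots were heated for 3 min over 48°C-58°C before pooling. Extraction used PBS with 0.5% NP-40 at 4°C, and soluble protein was the supernatant after 21,000xg for 90 min, measured by TMTpro 16plex LC-MS/MS with channel sums equalised. Thermal stability values, relative to control samples and from duplicates, are log2 fold changes.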

[2] = compound: Cc1cccc(CC(=O)N2CCc3c2ccc(-c2cn(C)c4ncnc(N)c24)c3F)n1
How it was run: as §1

[3] = compound: Cc1cn(-c2cc(NC(=O)c3ccc(C)c(Nc4nccc(-c5cccnc5)n4)c3)cc(C(F)(F)F)c2)cn1 [nilotinib]
How it was run: as §1

[4] = compound: Cc1nc(Nc2n[nH]c3c2CN(C(=O)N[C@H](CN(C)C)c2ccccc2)C3(C)C)c2sccc2n1
How it was run: as §1

[5] = compound: Cc1nc(Nc2ncc(C(=O)Nc3c(C)cccc3Cl)s2)cc(N2CCN(CCO)CC2)n1 [dasatinib]
How it was run: as §1

[6] = compound: Cc1ncc(-c2ccnc(Nc3ccc(S(C)(=O)=O)cc3)n2)n1C(C)C
How it was run: as §1

[7] = compound: Cn1cc(-c2ccc3c(c2)CCN3C(=O)Cc2cccc(C(F)(F)F)c2)c2c(N)ncnc21
How it was run: as §1

[8] = compound: Cn1cc(-c2ccc3nnc(C(F)(F)c4ccc5ncccc5c4)n3n2)cn1
How it was run: as §1

[9] = compound: Cn1cncc1[C@@](N)(c1ccc(Cl)cc1)c1ccc2c(c1)c(-c1cccc(Cl)c1)cc(=O)n2C [tipifarnib]
How it was run: as §1

[10] = compound: FC(F)(F)c1ccc(/C=C/c2nc(COc3ccc(CCCCn4ccnn4)cc3)co2)cc1 [mubritinib]
How it was run: as §1

[11] = compound: NC(=O)Nc1cc(-c2cccc(F)c2)sc1C(=O)N[C@H]1CCCNC1
How it was run: as §1

[12] = compound: NC(=O)c1cnc(N[C@@H]2CCCC[C@@H]2N)nc1Nc1cccc(-n2nccn2)c1
How it was run: as §1

[13] = compound: NC1(c2ccc(-c3nc4ccn5c(=O)[nH]nc5c4cc3-c3ccccc3)cc2)CCC1
How it was run: as §1

[14] = compound: NCC(=O)Nc1ccc(-n2nc(C(F)(F)F)cc2-c2ccc3c(ccc4ccccc43)c2)cc1
How it was run: as §1

[15] = compound: Nc1ccccc1NC(=O)c1ccc(CNC(=O)OCc2cccnc2)cc1 [entinostat]
How it was run: as §1

[16] = compound: O=C(CCCCCCC(=O)Nc1ccccc1)NO [vorinostat]
How it was run: as §1

[17] = compound: O=C(CCCCCCNC(=O)c1cnc(N(c2ccccc2)c2ccccc2Cl)nc1)NO [citarinostat]
How it was run: as §1

[18] = compound: O=C(O)c1ccc2c(c1)nc(Nc1cccc(Cl)c1)c1ccncc12 [silmitasertib]
How it was run: as §1

[19] = compound: O=C1NC(=O)C(c2cnc3ccccn23)=C1c1cn2c3c(cc(F)cc13)CN(C(=O)N1CCCCC1)CC2
How it was run: as §1

[20] = compound: c1cc(OCCN2CCCCC2)cc(-c2n[nH]c3ccc(-c4nnc[nH]4)cc23)c1
How it was run: as §1

Measured: log2 fold change

NAA30 (UniProt Q147X3)
inactive: [1] -0.09 | [2] 0.063 | [3] 0.016 | [4] 0.036 | [5] -0.091 | [6] -0.053 | [7] 0.027 | [8] 0.028 | [9] -0.041 | [10] 0.109 | [11] 0.022 | [12] 0.043 | [13] -0.028 | [14] 0.009 | [15] 0.003 | [16] 0.079 | [17] 0.004 | [18] 0.021 | [19] -0.137 | [20] 0.008

NDE1 isoform 1 (UniProt Q9NXR1)
inactive: [1] -0.008 | [2] -0.031 | [3] 0.024 | [4] 0.001 | [5] 0.069 | [6] -0.016 | [7] 0.012 | [8] -0.002 | [9] 0.053 | [10] 0.083 | [11] 0.05 | [12] -0.004 | [13] -0.047 | [14] 0.026 | [15] -0.014 | [16] -0.024 | [17] 0.036 | [18] 0.035 | [19] -0.01 | [20] -0.034

NECTIN2 isoform 2 (UniProt Q92692)
inactive: [1] -0.64 | [2] 0.145 | [3] 0.129 | [4] -0.016 | [5] 0.001 | [6] 0.006 | [8] -0.129 | [10] -0.049 | [11] 0.072 | [12] 0.171 | [13] -0.194 | [14] 0.031 | [15] -0.032 | [16] 0.087 | [17] 0.108 | [18] -0.039 | [19] -0.495 | [20] 0.09

NARS1 (UniProt O43776)
inactive: [1] 0 | [2] -0.035 | [3] 0.011 | [4] 0.004 | [5] 0.044 | [6] 0.001 | [7] -0.007 | [8] 0.011 | [9] 0.033 | [10] 0.009 | [11] -0.013 | [12] 0.007 | [13] 0.091 | [14] 0.03 | [15] -0.016 | [16] -0.005 | [17] -0.048 | [18] -0.013 | [19] -0.015 | [20] -0.007

NAP1L1 (UniProt P55209)
inactive: [1] -0.018 | [2] -0.094 | [3] 0.009 | [4] -0.044 | [5] 0.05 | [6] 0.022 | [7] -0.004 | [8] -0.039 | [9] 0.001 | [10] -0.014 | [11] -0.084 | [12] 0.049 | [13] -0.01 | [14] -0.016 | [15] 0.02 | [16] 0.008 | [17] -0.01 | [18] 0.069 | [19] -0.038 | [20] 0.069

NADSYN1 (UniProt Q6IA69)
inactive: [1] -0.005 | [2] 0.023 | [3] 0.03 | [4] -0.015 | [5] 0.03 | [6] -0.035 | [7] 0.019 | [8] 0.008 | [9] -0.016 | [10] 0.026 | [11] -0.035 | [12] 0.043 | [13] -0.033 | [14] 0 | [15] -0.033 | [16] -0.026 | [17] -0.032 | [18] -0.016 | [19] 0.013 | [20] -0.087

NANP (UniProt Q8TBE9)
inactive: [1] 0.11 | [2] -0.09 | [3] -0.009 | [4] 0.006 | [5] -0.016 | [6] 0.141 | [7] 0.03 | [9] -0.155 | [10] 0.154 | [11] -0.08 | [12] -0.138 | [13] -0.108 | [14] -0.142 | [15] 0.09 | [16] -0.074 | [17] -0.059 | [18] 0.109 | [19] -0.048 | [20] -0.092

NDFIP1 (UniProt Q9BT67)
inactive: [1] -0.137 | [2] -0.08 | [3] -0.214 | [4] 0.354 | [5] 0.039 | [6] 0.225 | [7] -0.038 | [8] -0.072 | [10] -0.024 | [11] 0.104 | [12] -0.16 | [13] -0.029 | [14] -0.249 | [15] -0.291 | [16] -0.051 | [17] 0.025 | [18] 0.27 | [19] 0.352 | [20] 0.007

N4BP1 (UniProt O75113)
inactive: [1] -0.028 | [2] -0.242 | [3] 0.017 | [4] -0.232 | [5] 0.054 | [6] 0.156 | [7] 0.132 | [8] -0.069 | [9] 0.145 | [10] -0.052 | [11] -0.023 | [12] -0.065 | [13] -0.098 | [14] -0.055 | [15] -0.09 | [16] 0.056 | [17] 0.075 | [18] 0.043 | [19] -0.133 | [20] -0.011

MZT2B (UniProt Q6NZ67)
inactive: [1] 0.023 | [2] 0 | [3] 0.082 | [4] -0.045 | [5] 0.055 | [6] 0.037 | [7] 0.009 | [8] -0.026 | [9] 0.043 | [10] 0.029 | [11] 0.076 | [12] -0.054 | [13] 0.018 | [14] 0.053 | [15] 0.027 | [16] 0.017 | [18] 0.028 | [19] -0.099

NAP1L1 (UniProt B7Z9C2)
inactive: [1] -0.11 | [2] -0.249 | [3] -0.011 | [4] -0.002 | [5] -0.347 | [6] -0.043 | [10] 0.049 | [12] -0.124 | [13] 0.028 | [14] 0.064 | [16] 0.23 | [17] 0.068 | [18] 0.001 | [20] 0.179

NACC1 (UniProt Q96RE7)
inactive: [1] -0.03 | [2] -0.039 | [3] -0.165 | [4] -0.109 | [5] -0.198 | [6] -0.12 | [7] -0.041 | [8] 0.034 | [9] -0.084 | [10] -0.03 | [11] 0.099 | [12] -0.082 | [13] -0.173 | [14] -0.075 | [15] 0.062 | [16] 0.148 | [17] 0.235 | [18] -0.027 | [19] -0.257 | [20] -0.057

NA, A0A494C071
active: [1] -1.12
inactive: [2] -0.057 | [3] 0.074 | [4] 0.329 | [5] 0.029 | [6] -0.439 | [7] 0.001 | [10] 0.094 | [12] -0.484 | [13] -0.407 | [14] -0.153 | [16] 0 | [17] 0.023 | [18] 0.212 | [19] -0.022 | [20] -0.086

NCK2 (UniProt O43639)
inactive: [1] 0.023 | [2] 0.114 | [3] -0.032 | [4] -0.271 | [5] -0.284 | [6] 0 | [7] 0.001 | [8] -0.216 | [9] 0.194 | [11] -0.188 | [12] -0.18 | [14] -0.178 | [15] 0.191 | [16] 0.105 | [17] 0.003 | [19] 0.068 | [20] -0.014

NEB isoform 3 (UniProt P20929)
inactive: [1] -0.072 | [2] 0.006 | [3] -0.043 | [4] 0.011 | [5] 0.198 | [6] -0.018 | [7] -0.096 | [8] 0.028 | [12] -0.173 | [14] 0.019 | [16] 0 | [17] 0.123 | [19] 0.148 | [20] -0.001

NDUFAF7 (UniProt Q7L592)
inactive: [1] 0.001 | [2] 0.05 | [3] -0.012 | [4] -0.023 | [6] -0.02 | [7] 0.203 | [8] 0.02 | [9] -0.08 | [10] -0.105 | [11] -0.058 | [12] -0.134 | [13] -0.109 | [14] -0.078 | [15] -0.019 | [16] -0.051 | [17] 0.133 | [18] -0.161 | [19] -0.076 | [20] -0.023
